The results in this text go back to the supplement of paper PMC12819154, “High-throughput peptide-centric local stability assay extends protein–ligand identification to membrane proteins, tissues and bacteria” (Nature Structural & Molecular Biology, 2025).

By UniProt entry, the sequences of proteins in these tests, tags left out. Where a name states a change or a piece, a line headed by the entry shows the natural chain unless it says otherwise.
UniProt Q8N7X0: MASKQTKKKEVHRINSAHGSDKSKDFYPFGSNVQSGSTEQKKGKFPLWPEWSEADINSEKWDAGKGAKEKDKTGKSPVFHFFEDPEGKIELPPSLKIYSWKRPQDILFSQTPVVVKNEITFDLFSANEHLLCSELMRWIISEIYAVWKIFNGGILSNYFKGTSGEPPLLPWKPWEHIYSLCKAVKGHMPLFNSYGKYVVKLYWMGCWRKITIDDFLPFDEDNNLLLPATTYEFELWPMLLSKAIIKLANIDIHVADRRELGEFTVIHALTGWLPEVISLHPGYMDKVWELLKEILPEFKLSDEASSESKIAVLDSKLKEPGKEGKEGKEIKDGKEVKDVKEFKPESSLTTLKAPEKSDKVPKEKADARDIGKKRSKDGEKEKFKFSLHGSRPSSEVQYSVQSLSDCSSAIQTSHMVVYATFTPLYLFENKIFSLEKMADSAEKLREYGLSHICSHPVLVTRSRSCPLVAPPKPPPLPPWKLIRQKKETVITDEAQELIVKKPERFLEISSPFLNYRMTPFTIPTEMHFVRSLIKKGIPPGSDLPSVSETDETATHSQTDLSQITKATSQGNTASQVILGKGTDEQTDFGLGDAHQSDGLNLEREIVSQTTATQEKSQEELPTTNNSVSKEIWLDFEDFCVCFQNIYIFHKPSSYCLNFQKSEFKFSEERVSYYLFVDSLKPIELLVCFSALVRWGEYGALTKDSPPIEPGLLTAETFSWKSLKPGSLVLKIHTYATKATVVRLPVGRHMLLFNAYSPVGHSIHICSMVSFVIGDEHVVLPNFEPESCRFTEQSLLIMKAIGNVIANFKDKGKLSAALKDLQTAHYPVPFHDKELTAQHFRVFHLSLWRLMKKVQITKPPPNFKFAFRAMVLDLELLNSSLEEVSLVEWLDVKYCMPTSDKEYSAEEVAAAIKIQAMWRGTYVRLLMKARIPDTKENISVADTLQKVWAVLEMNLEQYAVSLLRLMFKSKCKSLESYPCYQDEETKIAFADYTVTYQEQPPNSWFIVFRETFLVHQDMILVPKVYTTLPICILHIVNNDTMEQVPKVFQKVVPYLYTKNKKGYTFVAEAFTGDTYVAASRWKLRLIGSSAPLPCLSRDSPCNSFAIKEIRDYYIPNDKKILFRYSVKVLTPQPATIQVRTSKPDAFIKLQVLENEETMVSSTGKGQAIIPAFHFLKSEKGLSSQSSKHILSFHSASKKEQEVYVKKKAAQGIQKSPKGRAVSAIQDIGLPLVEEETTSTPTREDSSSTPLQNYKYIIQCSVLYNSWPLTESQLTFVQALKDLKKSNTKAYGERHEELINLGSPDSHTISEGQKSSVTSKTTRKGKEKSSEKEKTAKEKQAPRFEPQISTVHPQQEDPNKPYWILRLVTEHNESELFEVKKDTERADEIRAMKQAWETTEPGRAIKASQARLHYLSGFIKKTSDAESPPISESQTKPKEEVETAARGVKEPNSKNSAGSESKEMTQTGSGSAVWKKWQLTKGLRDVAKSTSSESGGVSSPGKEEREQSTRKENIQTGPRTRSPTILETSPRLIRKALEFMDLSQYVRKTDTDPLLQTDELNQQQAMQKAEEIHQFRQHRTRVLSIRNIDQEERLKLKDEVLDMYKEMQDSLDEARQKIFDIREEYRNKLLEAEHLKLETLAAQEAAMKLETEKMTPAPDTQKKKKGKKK
UniProt Q8NBL1: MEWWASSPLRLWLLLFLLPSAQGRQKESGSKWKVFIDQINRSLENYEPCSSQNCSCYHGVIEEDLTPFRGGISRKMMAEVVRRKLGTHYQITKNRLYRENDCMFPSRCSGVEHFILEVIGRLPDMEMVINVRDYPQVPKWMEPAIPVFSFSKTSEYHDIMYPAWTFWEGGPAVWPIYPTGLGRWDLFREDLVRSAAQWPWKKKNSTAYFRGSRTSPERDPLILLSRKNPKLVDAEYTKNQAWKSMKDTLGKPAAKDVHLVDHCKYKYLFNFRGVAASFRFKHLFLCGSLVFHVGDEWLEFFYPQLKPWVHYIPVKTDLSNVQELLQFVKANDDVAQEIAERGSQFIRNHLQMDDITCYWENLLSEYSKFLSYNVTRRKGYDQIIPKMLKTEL
UniProt Q8ND04: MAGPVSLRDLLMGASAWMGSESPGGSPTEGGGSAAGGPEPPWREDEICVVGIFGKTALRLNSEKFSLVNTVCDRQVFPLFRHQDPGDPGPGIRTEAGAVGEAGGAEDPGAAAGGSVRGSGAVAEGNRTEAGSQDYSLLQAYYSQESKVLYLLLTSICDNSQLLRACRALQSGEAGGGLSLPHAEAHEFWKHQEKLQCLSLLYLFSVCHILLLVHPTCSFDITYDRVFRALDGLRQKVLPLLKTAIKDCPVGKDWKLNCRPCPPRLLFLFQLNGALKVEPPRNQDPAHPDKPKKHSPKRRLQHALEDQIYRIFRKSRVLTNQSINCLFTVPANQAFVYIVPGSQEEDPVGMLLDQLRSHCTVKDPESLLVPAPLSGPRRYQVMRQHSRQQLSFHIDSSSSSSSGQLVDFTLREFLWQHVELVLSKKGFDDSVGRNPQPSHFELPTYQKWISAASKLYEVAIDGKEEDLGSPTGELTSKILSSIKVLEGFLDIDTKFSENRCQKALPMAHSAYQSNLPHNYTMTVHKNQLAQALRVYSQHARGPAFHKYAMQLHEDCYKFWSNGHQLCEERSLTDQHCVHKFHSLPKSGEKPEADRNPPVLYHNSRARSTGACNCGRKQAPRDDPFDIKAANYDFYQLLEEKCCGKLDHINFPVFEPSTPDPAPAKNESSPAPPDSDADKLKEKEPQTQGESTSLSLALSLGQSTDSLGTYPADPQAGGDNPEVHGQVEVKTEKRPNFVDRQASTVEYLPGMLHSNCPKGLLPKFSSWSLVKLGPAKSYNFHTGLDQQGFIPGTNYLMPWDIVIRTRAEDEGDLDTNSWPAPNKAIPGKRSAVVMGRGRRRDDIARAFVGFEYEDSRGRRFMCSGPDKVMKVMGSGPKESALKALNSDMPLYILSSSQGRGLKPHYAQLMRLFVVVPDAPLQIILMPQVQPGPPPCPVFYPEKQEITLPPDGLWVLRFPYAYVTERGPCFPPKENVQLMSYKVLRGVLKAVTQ
UniProt Q8NEZ2: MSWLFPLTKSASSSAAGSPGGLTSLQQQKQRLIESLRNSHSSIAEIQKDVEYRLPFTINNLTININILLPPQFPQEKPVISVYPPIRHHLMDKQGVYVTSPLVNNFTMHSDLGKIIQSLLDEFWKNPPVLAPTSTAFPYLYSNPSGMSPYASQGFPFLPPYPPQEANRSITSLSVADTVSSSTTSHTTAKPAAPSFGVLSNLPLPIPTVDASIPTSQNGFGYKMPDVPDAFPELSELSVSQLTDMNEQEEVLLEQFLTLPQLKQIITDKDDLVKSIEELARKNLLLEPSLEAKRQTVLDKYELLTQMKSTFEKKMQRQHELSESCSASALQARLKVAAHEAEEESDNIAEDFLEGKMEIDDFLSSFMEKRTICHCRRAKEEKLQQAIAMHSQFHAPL
UniProt Q8N883: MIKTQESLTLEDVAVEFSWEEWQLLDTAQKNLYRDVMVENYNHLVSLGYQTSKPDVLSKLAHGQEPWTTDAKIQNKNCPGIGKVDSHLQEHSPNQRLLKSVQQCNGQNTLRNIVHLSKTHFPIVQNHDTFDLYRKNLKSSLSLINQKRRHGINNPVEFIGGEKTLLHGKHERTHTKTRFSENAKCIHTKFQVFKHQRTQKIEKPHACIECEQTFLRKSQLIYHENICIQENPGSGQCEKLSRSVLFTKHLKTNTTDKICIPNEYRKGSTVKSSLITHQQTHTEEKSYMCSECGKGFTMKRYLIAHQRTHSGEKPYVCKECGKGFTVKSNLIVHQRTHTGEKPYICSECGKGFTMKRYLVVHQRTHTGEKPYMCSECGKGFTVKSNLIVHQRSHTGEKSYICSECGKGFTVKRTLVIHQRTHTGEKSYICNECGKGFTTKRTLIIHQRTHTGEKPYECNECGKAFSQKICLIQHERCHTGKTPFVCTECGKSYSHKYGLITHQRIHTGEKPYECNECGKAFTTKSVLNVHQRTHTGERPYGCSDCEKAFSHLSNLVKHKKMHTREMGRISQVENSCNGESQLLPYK
UniProt Q8ND25: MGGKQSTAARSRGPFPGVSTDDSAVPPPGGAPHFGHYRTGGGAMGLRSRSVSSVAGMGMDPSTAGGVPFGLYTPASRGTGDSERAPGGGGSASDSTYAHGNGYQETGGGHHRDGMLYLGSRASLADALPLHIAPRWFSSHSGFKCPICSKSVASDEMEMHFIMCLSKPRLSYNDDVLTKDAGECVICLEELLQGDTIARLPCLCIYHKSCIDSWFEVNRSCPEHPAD
UniProt Q8N6H7: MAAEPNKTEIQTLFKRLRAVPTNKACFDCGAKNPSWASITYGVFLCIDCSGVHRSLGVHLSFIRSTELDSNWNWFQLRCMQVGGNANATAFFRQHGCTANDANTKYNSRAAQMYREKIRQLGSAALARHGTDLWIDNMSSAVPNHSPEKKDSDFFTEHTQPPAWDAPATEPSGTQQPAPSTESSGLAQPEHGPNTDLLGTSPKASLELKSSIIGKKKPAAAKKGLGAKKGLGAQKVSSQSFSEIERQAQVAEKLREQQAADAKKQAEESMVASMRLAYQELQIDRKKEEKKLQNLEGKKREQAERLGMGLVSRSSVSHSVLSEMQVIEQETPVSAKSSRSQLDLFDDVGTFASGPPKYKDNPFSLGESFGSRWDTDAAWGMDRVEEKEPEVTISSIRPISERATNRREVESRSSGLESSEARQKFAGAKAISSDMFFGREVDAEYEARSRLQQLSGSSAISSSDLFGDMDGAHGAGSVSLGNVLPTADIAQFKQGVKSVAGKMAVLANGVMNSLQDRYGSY
UniProt Q8NEU8: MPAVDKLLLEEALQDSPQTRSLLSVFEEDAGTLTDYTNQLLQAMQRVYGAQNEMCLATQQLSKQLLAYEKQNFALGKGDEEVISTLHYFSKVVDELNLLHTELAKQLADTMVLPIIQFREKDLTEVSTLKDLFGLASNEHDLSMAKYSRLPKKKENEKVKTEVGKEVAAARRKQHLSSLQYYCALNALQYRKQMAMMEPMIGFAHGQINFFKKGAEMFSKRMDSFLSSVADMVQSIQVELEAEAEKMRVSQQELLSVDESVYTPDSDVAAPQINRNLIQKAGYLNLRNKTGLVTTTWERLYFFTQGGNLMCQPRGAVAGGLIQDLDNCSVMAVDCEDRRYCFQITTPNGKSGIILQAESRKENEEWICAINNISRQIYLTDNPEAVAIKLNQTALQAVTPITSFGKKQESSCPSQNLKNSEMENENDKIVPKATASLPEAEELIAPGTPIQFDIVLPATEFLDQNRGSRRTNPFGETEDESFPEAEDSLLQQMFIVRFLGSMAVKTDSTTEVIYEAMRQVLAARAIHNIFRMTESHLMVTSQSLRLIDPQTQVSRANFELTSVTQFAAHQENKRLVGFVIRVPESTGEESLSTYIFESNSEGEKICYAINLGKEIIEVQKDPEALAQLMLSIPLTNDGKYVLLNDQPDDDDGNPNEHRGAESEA
UniProt Q8NBZ0, whole entry: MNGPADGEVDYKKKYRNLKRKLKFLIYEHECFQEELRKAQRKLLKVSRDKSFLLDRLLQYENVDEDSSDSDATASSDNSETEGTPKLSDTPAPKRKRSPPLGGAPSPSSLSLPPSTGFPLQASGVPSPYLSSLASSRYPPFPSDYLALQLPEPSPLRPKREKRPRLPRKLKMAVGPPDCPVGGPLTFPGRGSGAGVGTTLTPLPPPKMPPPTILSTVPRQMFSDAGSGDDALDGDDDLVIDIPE

The other results are listed elsewhere or left out. Most entries show no effect beyond the scatter of the controls.

Compound in this test: CN[C@@H]1C[C@H]2O[C@@](C)([C@@H]1OC)n1c3ccccc3c3c4c(c5c6ccccc6n2c5c31)C(=O)NC4 [staurosporine]
Put plainly: log2 fold change of tryptic peptide abundance, ligand vs vehicle (limited proteolysis) (log2 ratio); higher = more trypsin-susceptible (destabilized). The conditions noted are these: ligand concentration: 20 uM; sample: K562 cleared lysate; digestion: 4 min, 22 C (HT-PELSA RT4min, Orbitrap Astral).
As for “ADGB (peptide sequence: EILPEFK, peptide start residue: 293) (UniProt Q8N7X0)”, the log2 fold change stood at 0.0309.
As for “UniProt Q8NBL1 (peptide sequence: WDLFREDLVR, peptide start residue: 184)”, the log2 fold change came out at 0.695.
For “UniProt Q8ND04 (peptide sequence: HQDPGDPGPGIR, peptide start residue: 82)” the value was 0.25; for “VPS37A (peptide sequence: MEIDDFLSSFMEKR, peptide start residue: 357) (UniProt Q8NEZ2)”, 0.121.
For “UniProt Q8N883 (peptide sequence: SSLSLINQK, peptide start residue: 139)” the value was -0.339.
For the target “ZNRF1 (peptide sequence: ASLADALPLHIAPR, peptide start residue: 122) (UniProt Q8ND25)”, the log2 fold change was -0.0535.
For “ARFGAP2 (peptide sequence: LREQQAADAK, peptide start residue: 254) (UniProt Q8N6H7)” the value was 0.348.
With “APPL2 (peptide sequence: ANFELTSVTQFAAHQENKR, peptide start residue: 556) (UniProt Q8NEU8)”, the log2 fold change was -0.403.
For “INO80E (peptide sequence: MAVGPPDCPVGGPLTFPGR, peptide start residue: 172) (UniProt Q8NBZ0)” the value was -0.412.
